{"source": "paper doi:10.1101/679936", "binders": {"B1": {"name": "Sac1, endogenous in HEK 293T (protein, UniProt Q9NTJ5 1-587)", "chain": "MATAAYEQLKLHITPEKFYVEACDDGADDVLTIDRVSTEVTLAVKKDVPPSAVTRPIFGILGTIHLVAGNYLIVITKKIKVGEFFSHVVWKATDFDVLSYKKTMLHLTDIQLQDNKTFLAMLNHVLNVDGFYFSTTYDLTHTLQRLSNTSPEFQEMSLLERADQRFVWNGHLLRELSAQPEVHRFALPVLHGFITMHSCSINGKYFDWILISRRSCFRAGVRYYVRGIDSEGHAANFVETEQIVHYNGSKASFVQTRGSIPVFWSQRPNLKYKPLPQISKVANHMDGFQRHFDSQVIIYGKQVIINLINQKGSEKPLEQTFATMVSSLGSGMMRYIAFDFHKECKNMRWDRLSILLDQVAEMQDELSYFLVDSAGQVVANQEGVFRSNCMDCLDRTNVIQSLLARRSLQAQLQRLGVLHVGQKLEEQDEFEKIYKNAWADNANACAKQYAGTGALKTDFTRTGKRTHLGLIMDGWNSMIRYYKNNFSDGFRQDSIDLFLGNYSVDELESHSPLSVPRDWKFLALPIIMVVAFSMCIICLLMAGDTWTETLAYVLFWGVASIGTFFIILYNGKDFVDAPRLVQKEKID"}}, "key": {"FLAG-SREBP2": {"molecular_target": "T1, FLAG-SREBP2 (UniProt Q12772)", "T1 sequence": "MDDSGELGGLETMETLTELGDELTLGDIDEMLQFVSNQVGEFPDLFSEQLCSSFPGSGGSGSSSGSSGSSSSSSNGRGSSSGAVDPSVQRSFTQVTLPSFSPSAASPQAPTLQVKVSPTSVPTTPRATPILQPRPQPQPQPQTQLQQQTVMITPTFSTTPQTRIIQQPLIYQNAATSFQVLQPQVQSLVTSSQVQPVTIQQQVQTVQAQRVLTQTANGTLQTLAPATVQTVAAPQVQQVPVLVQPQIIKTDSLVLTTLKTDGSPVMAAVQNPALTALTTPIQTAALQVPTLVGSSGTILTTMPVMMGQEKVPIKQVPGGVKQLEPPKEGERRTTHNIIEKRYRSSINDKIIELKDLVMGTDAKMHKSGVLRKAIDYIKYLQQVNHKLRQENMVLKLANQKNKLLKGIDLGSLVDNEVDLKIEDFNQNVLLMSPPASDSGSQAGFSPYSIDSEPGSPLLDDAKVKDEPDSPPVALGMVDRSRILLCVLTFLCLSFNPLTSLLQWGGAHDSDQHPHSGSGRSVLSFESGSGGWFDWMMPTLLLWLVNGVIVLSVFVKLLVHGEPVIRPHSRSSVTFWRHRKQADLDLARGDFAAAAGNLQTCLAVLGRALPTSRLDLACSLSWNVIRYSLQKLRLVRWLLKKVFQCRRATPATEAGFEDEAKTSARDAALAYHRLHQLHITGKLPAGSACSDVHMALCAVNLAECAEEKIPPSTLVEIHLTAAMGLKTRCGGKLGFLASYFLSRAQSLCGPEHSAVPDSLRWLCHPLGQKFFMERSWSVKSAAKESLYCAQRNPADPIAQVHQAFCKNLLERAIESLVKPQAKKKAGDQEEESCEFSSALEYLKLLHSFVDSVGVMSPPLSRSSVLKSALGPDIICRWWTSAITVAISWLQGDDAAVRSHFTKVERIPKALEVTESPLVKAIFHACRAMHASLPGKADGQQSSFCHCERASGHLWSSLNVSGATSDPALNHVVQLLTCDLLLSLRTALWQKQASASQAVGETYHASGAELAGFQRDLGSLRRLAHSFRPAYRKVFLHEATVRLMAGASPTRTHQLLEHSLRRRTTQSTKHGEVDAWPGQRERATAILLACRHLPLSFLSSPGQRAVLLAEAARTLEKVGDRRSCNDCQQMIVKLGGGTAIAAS", "assay": "co-IP"}, "[1]": {"molecular_target": "T2, FLAG-SCAP C-term (hamster) (UniProt P97260)", "T2 sequence": "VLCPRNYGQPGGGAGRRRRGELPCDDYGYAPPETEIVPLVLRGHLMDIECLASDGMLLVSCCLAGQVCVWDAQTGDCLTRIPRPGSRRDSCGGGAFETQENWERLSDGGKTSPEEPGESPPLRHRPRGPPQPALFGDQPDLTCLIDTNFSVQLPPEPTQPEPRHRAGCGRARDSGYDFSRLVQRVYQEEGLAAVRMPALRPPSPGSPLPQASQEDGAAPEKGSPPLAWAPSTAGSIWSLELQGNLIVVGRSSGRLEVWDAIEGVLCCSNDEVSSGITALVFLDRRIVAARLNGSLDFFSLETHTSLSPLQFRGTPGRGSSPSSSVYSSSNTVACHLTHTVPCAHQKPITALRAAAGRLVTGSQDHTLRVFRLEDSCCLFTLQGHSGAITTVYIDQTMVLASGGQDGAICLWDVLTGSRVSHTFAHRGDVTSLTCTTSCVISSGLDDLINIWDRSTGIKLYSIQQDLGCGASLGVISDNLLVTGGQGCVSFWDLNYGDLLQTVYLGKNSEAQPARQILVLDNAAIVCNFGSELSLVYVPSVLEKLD", "assay": "co-IP"}}, "note": "These are yes or no findings as the source states them, for the method shown. Binding seen in cells or lysates may run through a third protein. Some entries that bind do so weakly or less than the wild type. Sequences can lack the tags named with a protein.", "data": [{"binder": "B1", "values": [{"measurement": "binding", "setting": "FLAG-SREBP2", "result": "binds"}, {"measurement": "binding", "setting": "[1]", "result": "binds weakly"}]}]}
